Test results from PMC7769458.
Results are given in words; binding and its absence hold for the method and conditions named.

Protein sequences, listed by entry. Tags and fused reporters are not part of them. Residues count along the entry.
UniProt P08620, residues 31-206: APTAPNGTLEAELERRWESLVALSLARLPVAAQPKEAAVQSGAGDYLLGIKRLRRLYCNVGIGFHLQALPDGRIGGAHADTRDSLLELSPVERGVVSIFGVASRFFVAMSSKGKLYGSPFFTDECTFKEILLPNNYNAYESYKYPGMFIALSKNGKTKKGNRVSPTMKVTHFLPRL
UniProt O15520, residues 38-208: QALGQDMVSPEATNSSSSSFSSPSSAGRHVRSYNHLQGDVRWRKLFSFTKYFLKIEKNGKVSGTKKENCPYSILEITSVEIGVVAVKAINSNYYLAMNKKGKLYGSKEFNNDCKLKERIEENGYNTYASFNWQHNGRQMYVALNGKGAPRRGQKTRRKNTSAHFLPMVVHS
UniProt Q9HCT0, residues 23-170: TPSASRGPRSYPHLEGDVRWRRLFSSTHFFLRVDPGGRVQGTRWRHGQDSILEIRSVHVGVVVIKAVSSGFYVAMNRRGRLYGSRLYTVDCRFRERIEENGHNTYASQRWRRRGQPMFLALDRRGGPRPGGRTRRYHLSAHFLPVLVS
UniProt P12034, residues 21-268: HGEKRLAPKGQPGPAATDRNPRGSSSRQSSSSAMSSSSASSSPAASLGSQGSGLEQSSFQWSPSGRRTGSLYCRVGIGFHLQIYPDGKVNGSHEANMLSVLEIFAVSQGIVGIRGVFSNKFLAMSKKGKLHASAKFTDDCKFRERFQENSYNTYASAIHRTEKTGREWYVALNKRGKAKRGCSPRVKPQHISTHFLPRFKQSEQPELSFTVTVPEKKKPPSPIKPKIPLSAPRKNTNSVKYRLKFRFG
UniProt P21781, residues 32-194: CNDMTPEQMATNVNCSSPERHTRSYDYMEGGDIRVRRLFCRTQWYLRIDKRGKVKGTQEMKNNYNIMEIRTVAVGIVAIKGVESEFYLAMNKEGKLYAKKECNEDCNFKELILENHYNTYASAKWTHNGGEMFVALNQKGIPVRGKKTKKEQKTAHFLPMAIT
UniProt P10767, residues 38-208: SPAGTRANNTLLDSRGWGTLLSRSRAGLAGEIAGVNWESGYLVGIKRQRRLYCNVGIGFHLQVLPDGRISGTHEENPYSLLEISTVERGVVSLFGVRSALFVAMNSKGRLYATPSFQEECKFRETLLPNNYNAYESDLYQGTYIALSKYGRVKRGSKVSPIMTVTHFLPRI
UniProt P11487, residues 18-239: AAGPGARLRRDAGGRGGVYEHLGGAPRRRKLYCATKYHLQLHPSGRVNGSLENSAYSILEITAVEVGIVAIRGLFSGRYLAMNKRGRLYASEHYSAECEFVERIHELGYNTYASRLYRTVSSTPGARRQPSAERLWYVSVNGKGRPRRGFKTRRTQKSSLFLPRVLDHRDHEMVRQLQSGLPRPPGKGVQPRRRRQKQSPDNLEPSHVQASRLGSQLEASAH

These substances were tested against Recifercept (human) (assay: SPR; Biacore T200; Recifercept amine-coupled on a CM5 chip (about 400 RU); hFGF injected in HBS-EP (0.01 M HEPES, 0.15 M NaCl, 3 mM EDTA, 0.05% polysorbate 20, pH 7.4) at 50 ul/min; single cycle kinetics, 5 concentrations from 0 to 16 nM; global 1:1 fit; triplicate; both purified).

binding, no binding (tested: 16 nM):
human FGF4 (from UniProt P08620 31-206) (ligand)
human FGF10 (from UniProt O15520 38-208) (ligand)
human FGF22 (from UniProt Q9HCT0 23-170) (ligand)
human FGF5 (from UniProt P12034 21-268) (ligand)
human FGF7 (from UniProt P21781 32-194) (ligand)
human FGF6 (from UniProt P10767 38-208) (ligand)
human FGF3 (from UniProt P11487 18-239) (ligand)
